We go through one substance from publication doi:10.1101/423194.

By UniProt entry, the sequences of proteins in these tests, tags left out.
UniProt P16220: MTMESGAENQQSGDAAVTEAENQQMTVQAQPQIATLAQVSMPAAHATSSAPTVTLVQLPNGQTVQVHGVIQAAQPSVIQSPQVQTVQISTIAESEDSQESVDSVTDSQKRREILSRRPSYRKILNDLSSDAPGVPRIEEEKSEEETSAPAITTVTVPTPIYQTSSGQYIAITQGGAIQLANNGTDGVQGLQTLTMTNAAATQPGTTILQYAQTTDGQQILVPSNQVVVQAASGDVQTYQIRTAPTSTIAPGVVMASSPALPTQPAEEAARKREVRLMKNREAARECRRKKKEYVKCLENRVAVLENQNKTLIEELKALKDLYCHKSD
UniProt P03165: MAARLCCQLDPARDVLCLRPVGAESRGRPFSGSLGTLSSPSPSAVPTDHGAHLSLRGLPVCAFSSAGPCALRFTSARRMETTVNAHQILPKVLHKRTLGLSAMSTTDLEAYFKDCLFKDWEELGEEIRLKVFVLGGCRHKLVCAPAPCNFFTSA

No constants are given. Whether binding was seen depends on the method and setting. Some entries that bind do so weakly or less than the wild type.

The target of this experiment is HA-CREB (UniProt P16220). Put plainly: re-ChIP.

For the substance “GFP-HBx (hepatitis B virus X protein) (from UniProt P03165 1-154)”, the binding entry is “binds”.
